Publication PMC7125119, “An oncopeptide regulates m6A recognition by the m6A reader IGF2BP1 and tumorigenesis”
These are yes or no findings as the source states them, for the method shown. Binding seen in cells or lysates may run through a third protein. Some binding calls cover weakened binding; strength is not graded here.

The chains behind the UniProt entries cited, without tags or fusion partners.
UniProt Q9NZI8: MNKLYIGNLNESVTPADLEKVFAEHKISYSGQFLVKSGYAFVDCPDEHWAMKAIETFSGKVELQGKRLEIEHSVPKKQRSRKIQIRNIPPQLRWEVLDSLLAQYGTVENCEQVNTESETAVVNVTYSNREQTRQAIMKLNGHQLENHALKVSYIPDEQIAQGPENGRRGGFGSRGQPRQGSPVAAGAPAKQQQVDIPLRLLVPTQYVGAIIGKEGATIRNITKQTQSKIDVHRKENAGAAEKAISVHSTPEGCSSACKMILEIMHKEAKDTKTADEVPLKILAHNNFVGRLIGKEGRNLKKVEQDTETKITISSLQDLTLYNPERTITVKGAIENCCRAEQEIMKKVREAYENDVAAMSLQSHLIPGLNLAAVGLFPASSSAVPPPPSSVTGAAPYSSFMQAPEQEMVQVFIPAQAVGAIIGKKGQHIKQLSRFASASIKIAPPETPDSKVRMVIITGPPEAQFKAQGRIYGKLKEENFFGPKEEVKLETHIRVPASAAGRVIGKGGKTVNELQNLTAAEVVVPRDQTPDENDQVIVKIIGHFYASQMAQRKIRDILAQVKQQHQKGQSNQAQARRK
UniProt P11940: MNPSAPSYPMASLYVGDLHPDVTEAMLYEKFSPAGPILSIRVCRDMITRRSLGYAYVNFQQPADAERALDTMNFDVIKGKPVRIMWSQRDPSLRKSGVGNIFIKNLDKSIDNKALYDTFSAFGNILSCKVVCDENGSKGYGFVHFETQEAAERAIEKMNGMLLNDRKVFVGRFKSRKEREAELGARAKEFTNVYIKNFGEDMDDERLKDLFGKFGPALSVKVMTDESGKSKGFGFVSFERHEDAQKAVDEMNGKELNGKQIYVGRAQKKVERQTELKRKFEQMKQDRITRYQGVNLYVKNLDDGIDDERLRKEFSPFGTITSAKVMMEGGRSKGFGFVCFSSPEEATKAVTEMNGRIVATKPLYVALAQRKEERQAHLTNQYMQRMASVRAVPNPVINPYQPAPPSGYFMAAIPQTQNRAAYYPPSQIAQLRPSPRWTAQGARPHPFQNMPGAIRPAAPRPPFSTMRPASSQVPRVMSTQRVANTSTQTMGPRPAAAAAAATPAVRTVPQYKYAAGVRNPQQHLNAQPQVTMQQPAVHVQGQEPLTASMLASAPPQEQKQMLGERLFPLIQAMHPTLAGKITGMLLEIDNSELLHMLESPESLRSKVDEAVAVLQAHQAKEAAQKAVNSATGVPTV

B1: MATR3 (protein, UniProt P43243 1-847)
chain: MSKSFQQSSLSRDSQGHGRDLSAAGIGLLAAATQSLSMPASLGRMNQGTARLASLMNLGMSSSLNQQGAHSALSSASTSSHNLQSIFNIGSRGPLPLSSQHRGDADQASNILASFGLSARDLDELSRYPEDKITPENLPQILLQLKRRRTEEGPTLSYGRDGRSATREPPYRVPRDDWEEKRHFRRDSFDDRGPSLNPVLDYDHGSRSQESGYYDRMDYEDDRLRDGERCRDDSFFGETSHNYHKFDSEYERMGRGPGPLQERSLFEKKRGAPPSSNIEDFHGLLPKGYPHLCSICDLPVHSNKEWSQHINGASHSRRCQLLLEIYPEWNPDNDTGHTMGDPFMLQQSTNPAPGILGPPPPSFHLGGPAVGPRGNLGAGNGNLQGPRHMQKGRVETSRVVHIMDFQRGKNLRYQLLQLVEPFGVISNHLILNKINEAFIEMATTEDAQAAVDYYTTTPALVFGKPVRVHLSQKYKRIKKPEGKPDQKFDQKQELGRVIHLSNLPHSGYSDSAVLKLAEPYGKIKNYILMRMKSQAFIEMETREDAMAMVDHCLKKALWFQGRCVKVDLSEKYKKLVLRIPNRGIDLLKKDKSRKRSYSPDGKESPSDKKSKTDGSQKTESSTEGKEQEEKSGEDGEKDTKDDQTEQEPNMLLESEDELLVDEEEAAALLESGSSVGDETDLANLGDVASDGKKEPSDKAVKKDGSASAAAKKKLKKVDKIEELDQENEAALENGIKNEENTEPGAESSENADDPNKDTSENADGQSDENKDDYTIPDEYRIGPYQPNVPVGIDYVIPKTGFYCKLCSLFYTNEEVAKNTHCSSLPHYQKLKKFLNKLAEERRQKKET

Target: IGF2BP1 (as used in Supplementary Fig. 10a, b) (UniProt Q9NZI8)
Experiment: co-IP; Supplementary Fig. 10a, b: interaction of IGF2BP1 with RNA stabilizers with RBRP or RBRP G19A expressed; RNA-independent; set-up not shown

| Molecule | binding |
| --- | --- |
| PABPC1 (from UniProt P11940 1-636) | binds |
| B1 | binds |
